Results are given in words; binding and its absence hold for the method and conditions named. Binding seen in cells or lysates may run through a third protein. Some binding calls cover weakened binding; strength is not graded here.
Molecular target: T1, endogenous TRAF6 of mouse colon tissue (mouse (endogenous in colon tissue)) (UniProt P70196)
T1 sequence: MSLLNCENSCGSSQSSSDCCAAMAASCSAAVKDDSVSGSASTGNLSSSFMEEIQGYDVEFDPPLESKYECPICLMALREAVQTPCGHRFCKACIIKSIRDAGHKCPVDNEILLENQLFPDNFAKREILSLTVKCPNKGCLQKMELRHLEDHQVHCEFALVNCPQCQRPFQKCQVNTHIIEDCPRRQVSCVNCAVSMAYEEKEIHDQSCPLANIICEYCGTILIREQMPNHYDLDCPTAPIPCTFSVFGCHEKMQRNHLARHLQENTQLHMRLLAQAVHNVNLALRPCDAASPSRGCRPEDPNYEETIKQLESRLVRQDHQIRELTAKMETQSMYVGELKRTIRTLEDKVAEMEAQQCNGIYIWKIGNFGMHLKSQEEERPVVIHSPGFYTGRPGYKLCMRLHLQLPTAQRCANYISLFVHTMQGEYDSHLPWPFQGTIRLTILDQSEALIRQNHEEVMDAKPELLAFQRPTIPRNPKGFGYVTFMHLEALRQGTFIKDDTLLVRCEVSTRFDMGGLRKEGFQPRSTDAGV
Experiment: co-IP; endogenous proteins in mouse colon tissue

The chains behind the UniProt entries cited, without tags or fusion partners.
UniProt P11679: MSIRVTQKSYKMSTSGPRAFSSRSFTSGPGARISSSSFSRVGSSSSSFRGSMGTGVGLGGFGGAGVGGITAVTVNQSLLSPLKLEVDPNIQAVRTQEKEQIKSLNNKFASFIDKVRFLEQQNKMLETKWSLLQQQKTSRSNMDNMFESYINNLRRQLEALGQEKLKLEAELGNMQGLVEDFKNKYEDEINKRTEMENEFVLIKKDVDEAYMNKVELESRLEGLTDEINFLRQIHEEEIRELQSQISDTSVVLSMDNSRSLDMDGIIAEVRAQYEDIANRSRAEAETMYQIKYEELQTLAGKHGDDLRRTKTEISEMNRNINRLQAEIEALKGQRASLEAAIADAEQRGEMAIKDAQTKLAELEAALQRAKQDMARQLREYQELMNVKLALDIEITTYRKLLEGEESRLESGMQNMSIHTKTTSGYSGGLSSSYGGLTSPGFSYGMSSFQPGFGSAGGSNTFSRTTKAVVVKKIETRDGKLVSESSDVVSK

Substance: endogenous CK8 (Keratin 8) of mouse colon tissue (from UniProt P11679 1-490)
- binding: binds

Reference: paper PMC5009362
